Drawing on article PMC7862700, this text covers binding signal for 35 sequences.

Only a part is listed here, and it is no random draw. At the low end of the ranking, values are background and their order means little.

The experiment has as its target SPI1 (UniProt P17947). Nature of the experiment: DAPPL (digital affinity profiling via proximity ligation, sequencing). To be noted: 10 mM Tris-HCl pH 7.5, 50 mM NaCl, 1 mM DTT, 4% glycerol, room temperature, 30 min; GST-TFs on glutathione beads, 16-mer random dsDNA library, 0.1% …; high values mean tight binding; double strand, one strand shown; scale: fold enrichment (6-mer frequency, TF over GST control).
On to TAACTC, for which the binding signal was found to be 1.18.
In turn, GCGACT displayed a binding signal of 1.2.
AAGTCC came in with a binding signal of 1.36.
The sequence TCTCCC had a binding signal of 1.47.
The result for ATGGCT reads 1.28.
On to CTCCTT, for which the binding signal is 1.71.
AAGCAG had a binding signal of 1.24.
On to GAACCT, for which the binding signal stood at 1.11.
Sequence TGTATC returned a binding signal of 1.37.
For the sequence GCTAAT, the binding signal is 1.13.
In the case of ATCTTT it was 1.21; in that of TTCCAG, 1.05.
In turn, GCCAAT showed a binding signal of 1.01.
Turning to TCGCAC, the binding signal turned out to be 1.13.
Turning to CCGCCC, the binding signal came out at 1.17.
In the case of TTTTTA it was 1.47.
Regarding CTGAGC, the binding signal was 1.11.
Take AAGCGA: the binding signal is 1.07.
Consider AAGTCT, for which the binding signal worked out at 1.27.
In turn, TTTGCT displayed a binding signal of 1.21.
CCGAAG registered a binding signal of 0.956.
For the sequence GTATTA, the binding signal is 1.04.
Sequence TGCGTA yielded a binding signal of 1.17.
In the case of ATAACT, the binding signal is 1.22.
The result for GTCCCT reads 1.38; that for TATTCT, 1.31.
CTTGCC came in with a binding signal of 1.38.
CAACAA: the binding signal is 1.02.
For the sequence TCGAAT, the binding signal was 0.954.
In the case of CTAAAC, the binding signal turned out to be 1.17.
AACGTA registered a binding signal of 0.949.
As to TTACCC, the binding signal came to 1.35.
For CGCTAC, the binding signal was determined as 1.16.
TTTATA had a binding signal of 1.34.
Sequence GGTATT registered a binding signal of 1.16.
